Results as given in patent publication US20230158068A1 (priority 2020, published 2023).

Test system: U937 cells
Settings: amiodarone 10 μM; U937 cells with no, 5 nM or 100 nM PMA for 24 h or 72 h

## CCCCc1oc2ccccc2c1C(=O)c1cc(I)c(OCCN(CC)CC)c(I)c1 [amiodarone]
  cell functionality to amiodarone (phospholipidosis, LipidTOX fluorescence): maintained after differentiation
